Taken from: PubChem BioAssay AID1259254 (NCATS, 2017)

Screen: 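Finding genes that stop cells copying their DNA twice in one cycle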 (primary screen)
Cell system: human HCT116 colorectal cancer cells
Knock-down reagent: single siRNA against human genes
Time to read-out: 3 days
Detection: 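Imaged Hoechst DNA stain sorts each cell into a cycle phase by DNA amount; per plate, G2 fraction set to 0% for non-targeting and 100% for GMNN siRNA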
Reading the numbers: G2 robust z-score: higher = more G2 cells, more excess DNA replication
Call rule: 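Active siRNAs have a G2 robust z of 5 or more median absolute deviations over the median, which in these data means about 38% or higher of GMNN control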
The whole screen tested about 59,000 reagents; this is a part drawn at random. Over the whole deposit, about 1,550 (2.6%) are marked active. 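G2 share is only a proxy for re-replication; each gene was hit by three separate siRNAs, and active genes were retested.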 Reagents against one gene are numbered here. Not all columns of the deposit are shown. Not stated in the record: the amount of reagent.

GPR83 (GeneID 10888) #1 → G2 robust z-score = -1.77; Call = inactive
GPR83 (GeneID 10888) #2 → G2 robust z-score = 1.15; Call = inactive
GPR83 (GeneID 10888) #3 → G2 robust z-score = 5.9; Call = active
UTP20 (GeneID 27340) #1 → G2 robust z-score = 0.968; Call = inactive
UTP20 (GeneID 27340) #2 → G2 robust z-score = -0.912; Call = inactive
UTP20 (GeneID 27340) #3 → G2 robust z-score = 3.34; Call = inactive

Not a retest: an excerpt of the list.
GPR83 (GeneID 10888) #1 → G2 robust z-score = -1.77; Call = inactive
GPR83 (GeneID 10888) #2 → G2 robust z-score = 1.15; Call = inactive

The list goes on.
ADAMTS9 (GeneID 56999) #1 → G2 robust z-score = -0.9; Call = inactive
ADAMTS9 (GeneID 56999) #2 → G2 robust z-score = -0.604; Call = inactive
ADAMTS9 (GeneID 56999) #3 → G2 robust z-score = -0.457; Call = inactive
TMEM196 (GeneID 256130) #1 → G2 robust z-score = 0.679; Call = inactive
TMEM196 (GeneID 256130) #2 → G2 robust z-score = -0.311; Call = inactive
TMEM196 (GeneID 256130) #3 → G2 robust z-score = 0.107; Call = inactive
NLRP12 (GeneID 91662) #1 → G2 robust z-score = 3.17; Call = inactive
NLRP12 (GeneID 91662) #2 → G2 robust z-score = 0.311; Call = inactive
NLRP12 (GeneID 91662) #3 → G2 robust z-score = 2.16; Call = inactive
PAX6 (GeneID 5080) #1 → G2 robust z-score = -1.17; Call = inactive
PAX6 (GeneID 5080) #2 → G2 robust z-score = 0.208; Call = inactive
PAX6 (GeneID 5080) #3 → G2 robust z-score = -0.492; Call = inactive
